Consider one substance from patent publication US20100015144A1.

Sequences of proteins named here, by UniProt entry; tags and fusion partners are left off. A change or cut given only in a name is not applied to a line headed by its entry.
UniProt P27037: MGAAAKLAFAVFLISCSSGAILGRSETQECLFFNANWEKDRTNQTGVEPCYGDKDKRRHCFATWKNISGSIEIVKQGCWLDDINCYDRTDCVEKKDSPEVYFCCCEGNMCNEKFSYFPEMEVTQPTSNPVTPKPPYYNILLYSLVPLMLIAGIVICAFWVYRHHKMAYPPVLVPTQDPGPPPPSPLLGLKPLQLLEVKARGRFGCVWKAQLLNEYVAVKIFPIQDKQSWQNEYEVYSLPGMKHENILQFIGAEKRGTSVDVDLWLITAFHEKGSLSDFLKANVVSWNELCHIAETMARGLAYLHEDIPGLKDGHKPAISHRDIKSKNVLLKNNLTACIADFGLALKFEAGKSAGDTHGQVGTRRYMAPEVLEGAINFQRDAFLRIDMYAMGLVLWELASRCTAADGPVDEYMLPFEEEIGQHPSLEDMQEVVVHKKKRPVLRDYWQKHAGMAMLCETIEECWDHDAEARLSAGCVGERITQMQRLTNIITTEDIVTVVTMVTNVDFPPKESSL

This experiment concerns the target T1, GDF-11 (UniProt O95390).
T1 sequence (looked up): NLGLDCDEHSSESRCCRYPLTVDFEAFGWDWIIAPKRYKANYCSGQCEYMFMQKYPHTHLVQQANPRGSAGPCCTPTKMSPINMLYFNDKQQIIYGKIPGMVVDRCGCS
Description: Biacore SPR, GDF-11 immobilized on CM5 chip.

These are yes or no findings as the source states them, for the method shown. Some results given as binding are weak or reduced against the parent protein; the word gives no strength.

Take “ActRIIa-mFc (from UniProt P27037 21-135) (Fc fusion)”: the binding result was “binds”.
